Reference: article PMC8336837, “Structure of the human C9orf72-SMCR8 complex reveals a multivalent protein interaction architecture” (PLoS Biology, 2021)
No constants are given. Whether binding was seen depends on the method and setting. Binding seen in cells or lysates may run through a third protein. These calls come from enrichment with a bait or labelling near it, and not all partners need be listed.

The chains behind the UniProt entries cited, without tags or fusion partners.
UniProt Q8TDY2: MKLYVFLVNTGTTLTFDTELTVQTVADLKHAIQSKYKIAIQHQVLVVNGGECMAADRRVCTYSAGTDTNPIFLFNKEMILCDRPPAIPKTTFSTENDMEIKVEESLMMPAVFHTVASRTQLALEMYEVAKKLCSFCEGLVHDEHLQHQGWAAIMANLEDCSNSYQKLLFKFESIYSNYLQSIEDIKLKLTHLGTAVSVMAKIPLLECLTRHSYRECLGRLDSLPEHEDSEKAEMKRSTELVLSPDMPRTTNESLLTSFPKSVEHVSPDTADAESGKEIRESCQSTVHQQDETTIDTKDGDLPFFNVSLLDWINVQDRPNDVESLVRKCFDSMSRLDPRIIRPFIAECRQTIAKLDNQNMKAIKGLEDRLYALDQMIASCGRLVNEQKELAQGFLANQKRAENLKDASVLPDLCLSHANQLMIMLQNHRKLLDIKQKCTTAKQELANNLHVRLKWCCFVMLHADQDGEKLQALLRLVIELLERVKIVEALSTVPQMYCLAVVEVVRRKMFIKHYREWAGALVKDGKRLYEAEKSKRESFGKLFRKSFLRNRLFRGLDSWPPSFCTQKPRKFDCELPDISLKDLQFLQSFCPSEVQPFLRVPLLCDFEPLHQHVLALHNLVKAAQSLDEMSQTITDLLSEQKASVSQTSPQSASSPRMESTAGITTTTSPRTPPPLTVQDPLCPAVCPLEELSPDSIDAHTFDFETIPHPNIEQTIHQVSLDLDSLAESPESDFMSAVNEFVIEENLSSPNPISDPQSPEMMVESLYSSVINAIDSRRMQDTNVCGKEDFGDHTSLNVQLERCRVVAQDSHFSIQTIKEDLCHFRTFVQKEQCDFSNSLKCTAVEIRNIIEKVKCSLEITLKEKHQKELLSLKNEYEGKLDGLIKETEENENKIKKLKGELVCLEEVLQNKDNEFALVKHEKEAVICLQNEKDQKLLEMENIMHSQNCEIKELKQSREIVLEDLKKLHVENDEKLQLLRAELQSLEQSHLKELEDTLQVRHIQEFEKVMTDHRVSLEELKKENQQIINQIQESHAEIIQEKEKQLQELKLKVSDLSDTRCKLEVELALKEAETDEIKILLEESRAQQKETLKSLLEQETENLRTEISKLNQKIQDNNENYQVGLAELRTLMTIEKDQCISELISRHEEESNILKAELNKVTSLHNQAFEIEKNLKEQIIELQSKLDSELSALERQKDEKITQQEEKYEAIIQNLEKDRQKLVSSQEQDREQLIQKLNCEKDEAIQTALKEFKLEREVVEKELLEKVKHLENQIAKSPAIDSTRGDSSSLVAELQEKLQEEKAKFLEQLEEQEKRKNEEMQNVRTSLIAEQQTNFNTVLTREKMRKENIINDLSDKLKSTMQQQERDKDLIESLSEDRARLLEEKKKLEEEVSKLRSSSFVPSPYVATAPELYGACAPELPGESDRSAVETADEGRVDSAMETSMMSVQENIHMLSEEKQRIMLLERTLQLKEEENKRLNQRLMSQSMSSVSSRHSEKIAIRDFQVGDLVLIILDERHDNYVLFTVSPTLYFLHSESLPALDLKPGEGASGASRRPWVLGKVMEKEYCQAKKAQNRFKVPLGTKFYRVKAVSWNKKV

Target: T1, Strep-SMCR8 full-length (SMCR8 wild-type) (human) (UniProt Q8TEV9)
T1 sequence: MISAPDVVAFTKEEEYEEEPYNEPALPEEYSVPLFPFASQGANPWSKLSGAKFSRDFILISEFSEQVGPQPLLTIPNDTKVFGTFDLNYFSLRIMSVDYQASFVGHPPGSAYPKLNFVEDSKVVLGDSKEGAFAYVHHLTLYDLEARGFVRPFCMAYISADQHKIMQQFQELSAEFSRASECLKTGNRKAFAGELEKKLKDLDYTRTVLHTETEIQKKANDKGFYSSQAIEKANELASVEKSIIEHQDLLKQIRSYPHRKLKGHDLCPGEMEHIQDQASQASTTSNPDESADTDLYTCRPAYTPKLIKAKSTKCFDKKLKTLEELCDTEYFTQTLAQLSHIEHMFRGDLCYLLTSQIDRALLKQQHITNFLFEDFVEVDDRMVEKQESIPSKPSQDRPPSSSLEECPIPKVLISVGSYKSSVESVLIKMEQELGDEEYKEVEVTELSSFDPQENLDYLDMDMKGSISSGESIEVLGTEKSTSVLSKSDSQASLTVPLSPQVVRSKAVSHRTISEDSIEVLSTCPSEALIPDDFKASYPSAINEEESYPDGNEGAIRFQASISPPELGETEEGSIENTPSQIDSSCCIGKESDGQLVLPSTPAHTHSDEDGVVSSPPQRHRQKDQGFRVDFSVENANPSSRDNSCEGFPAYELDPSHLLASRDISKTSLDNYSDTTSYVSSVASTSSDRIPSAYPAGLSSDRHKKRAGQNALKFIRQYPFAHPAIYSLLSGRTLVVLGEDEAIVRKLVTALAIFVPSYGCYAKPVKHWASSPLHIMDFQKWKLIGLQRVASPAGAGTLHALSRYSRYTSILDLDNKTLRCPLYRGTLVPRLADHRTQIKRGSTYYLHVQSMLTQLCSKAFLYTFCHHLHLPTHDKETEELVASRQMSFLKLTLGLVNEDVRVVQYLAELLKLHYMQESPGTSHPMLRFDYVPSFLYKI
Test: affinity purification with mass spectrometry; Strep-SMCR8 (WT or ΔCC) and C9orf72 transfected into HEK293T; cells fed or starved 90 minutes (amino acid- and glucose-free media) before lysis; magnetic Strep-Tactin beads; label-free quantification (LFQ), triplicates

FIP200 (in HEK293T cells) (from UniProt Q8TDY2 1-1594)
binding: binds
